No constants are given. Whether binding was seen depends on the method and setting. Binding seen in cells or lysates may run through a third protein. Some binding calls cover weakened binding; strength is not graded here.

Sequences of proteins named here, by UniProt entry; tags and fusion partners are left off.
UniProt D2D055: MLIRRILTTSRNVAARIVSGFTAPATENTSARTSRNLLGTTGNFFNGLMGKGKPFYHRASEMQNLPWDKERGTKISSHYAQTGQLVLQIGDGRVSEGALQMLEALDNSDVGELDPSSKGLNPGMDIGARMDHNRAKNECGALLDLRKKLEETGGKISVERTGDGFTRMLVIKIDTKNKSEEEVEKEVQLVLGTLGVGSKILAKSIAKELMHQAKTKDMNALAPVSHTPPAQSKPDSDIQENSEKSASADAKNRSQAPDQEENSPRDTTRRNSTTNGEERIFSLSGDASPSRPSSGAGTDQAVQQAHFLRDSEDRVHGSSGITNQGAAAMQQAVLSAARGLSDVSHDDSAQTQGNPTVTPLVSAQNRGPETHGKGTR
UniProt O00560: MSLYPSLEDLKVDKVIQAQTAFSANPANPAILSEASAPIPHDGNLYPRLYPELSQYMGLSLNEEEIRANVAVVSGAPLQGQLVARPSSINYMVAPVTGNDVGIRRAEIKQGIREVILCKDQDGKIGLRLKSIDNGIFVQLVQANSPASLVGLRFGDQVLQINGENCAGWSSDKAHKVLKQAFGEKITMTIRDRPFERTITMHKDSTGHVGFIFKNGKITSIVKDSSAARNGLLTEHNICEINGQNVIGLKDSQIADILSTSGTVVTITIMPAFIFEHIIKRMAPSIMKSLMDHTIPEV

The target of this experiment is Ats-1-His (pcDNA3.1-Ats-1) (Anaplasma phagocytophilum) (UniProt D2D055). The experiment in a line: co-IP; Ats-1-His and SDCBP-Myc co-transfected into HEK293T, 48 h, native lysis buffer; immunoprecipitated with anti-His or anti-Myc antibody and protein G-agarose, blotted for the Myc or His tag.

Regarding “SDCBP-Myc (pcDNA3.1) (from UniProt O00560 1-298)”, the binding result is “binds”.

Source of the values: paper PMC10523776.
